Measured values as given in PMC7943015.

B1: CAGL0I03916g (ortholog of S. cerevisiae ARF2) (protein, UniProt Q6FQS5 1-181)
chain: MGLFASKLFSNLFGNKEMRILMVGLDGAGKTTVLYKLKLGEVITTIPTIGFNVETVQYKNISFTVWDVGGQDRIRSLWRHYYRNTEGVIFVVDSNDRSRIGEAREVMQRMLNEDELRNAVWLVFANKQDLPEAMSAAEITEKLGLHSIRNRPWFIQATCATTGEGLYEGLEWLSNNLNNKE
B2: CAGL0A00979g (ortholog of S. cerevisiae RPL38) (protein, UniProt Q6FXW9 1-78)
chain: MAREVTDIKQFLELTRRNDVQSATVKINKKLNKNGKQFRQTKFKVRGSRHLYTLTVNDAGKAKKLIQSLPPTLKVNKL

Biological target: CgYps1 (C. glabrata (endogenous in derivatives of strain BG2))
Assay: affinity purification with mass spectrometry; CgYps1 immunoprecipitated with anti-CgYps1 polyclonal antibody on rProtein A-Sepharose from precleared extracts (2 mg) of log-phase wt and Cgyps1-11Δ cells, 2-3 h at 4°C, duplicates; hits: at least two unique peptides, in both wt replicates, absent from both Cgyps1-11Δ samples

Binder | binding
B1 | binds
B2 | binds

No constants are given. Whether binding was seen depends on the method and setting. In cells and extracts the contact can be indirect. Here binding means that the protein was enriched with, or labelled near, the bait; the list need not be complete.
